From PubChem BioAssay AID1345085 (National Center for Advancing Translational Sciences (NCATS), 2018)
The inconclusive results got no clear call from the source; some entries with a clear call stand among them for comparison. Where the call is inconclusive, the potency comes from a doubtful curve fit. The source made the active and inactive calls. The call rests on the fitted dose curve; in most records, active means well fitted cell-killing curve with a large enough effect; inconclusive means small, poorly fitted or top-dose-only effect, or effect the other way; inactive means no such curve, though single readings can be large or run the other way.

test system: CAOV3; assay: Confirmatory qHTS for gynecologic anti-cancer compounds from libraries of approved drugs and bioactive compounds; conditions: gynecologic cancer cell panel viability, ATPlite luminescence, 48 h; series mostly up to 57.6 µM; activity change, negative = viability loss: at the top concentration; further: nearly all actives have a fitted effect of over 55% in size
How it was run: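 Viability is measured as ATP-dependent luciferase light using ATPlite, read 15 min after reagent addition at room temperature. Compounds, in DMSO, span 57.5 uM down to 0.977 nM over 11 threefold steps for 48 h.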
On the % scale 0 is the no-effect control and ±100 the full control effect; potency means the concentration at half of the fitted maximal effect.

Structure (SMILES)	Potency	activity change, negative = viability loss
COc1cccc2c1C(=O)c1c(O)c3c(c(O)c1C2=O)C[C@@](O)(C(=O)CO)C[C@@H]3O[C@H]1C[C@H](N)[C@H](O[C@@H]2CCCCO2)[C@H](C)O1	active: 9.68 µM	
COc1ccc(-c2nc3ccc(C4=NNC(=O)CC4C)cc3[nH]2)cc1 (stereo not drawn)	inconclusive: 21.7 µM [cytotoxic, partial curve]	
CC(=O)NCC(=O)N1C2CCC1c1cc(Nc3ncc(C(F)(F)F)c(NC4CCC4)n3)ccc12 (stereo not drawn)	inconclusive: 12.2 µM [cytotoxic, single point]	
CCN(CC)CCOc1ccc(/C(=C(\Cl)c2ccccc2)c2ccccc2)cc1	active: 100 µM	
CCCCc1oc2ccccc2c1C(=O)c1cc(I)c(OCCN(CC)CC)c(I)c1	active: 79.4 µM	
CNc1nc(Nc2ccc(C(=O)N3CCOCC3)cc2OC)ncc1Cl		inactive: 10.9%
COc1c(C)c2c(c(O)c1C/C=C(\C)CCC(=O)O)C(=O)OC2		inactive: -18.3%
CCCC(Nc1nc(-c2ccc(NC(=O)NCC)c(OC)c2)ncc1C)c1cccnc1 (stereo not drawn)		inactive: -17.6%
CCCS(=O)c1ccc2nc(NC(=O)OC)[nH]c2c1 (stereo not drawn)	inconclusive: 27.3 µM [cytotoxic, partial curve, poor fit]	
CN1C2CCC1CC(OC(=O)[C@H](CO)c1ccccc1)C2 (stereo partly drawn)		inactive: -6.01%
CC[C@@]1(O)C(=O)OCc2c1cc1n(c2=O)Cc2cc3cc(O)ccc3nc2-1	active: 0.109 µM	
CCN1CCN(Cc2ccc(Nc3ncc(F)c(-c4cc(F)c5nc(C)n(C(C)C)c5c4)n3)nc2)CC1		inactive: -8.37%
COc1cc(C(=O)N2CCC(N3CCN(C)CC3)CC2)ccc1Nc1ncc2c(n1)N(C)c1ccccc1C(=O)N2C	active: 10.9 µM	
